Measurements as given in PubChem BioAssay AID504834 (National Center for Advancing Translational Sciences (NCATS), 2011).
Where “and” joins values, the source holds several entries; their conditions need not be identical. Equal entries are not always repeated. Hit rate of the full screen: of about 320,000 compounds, about 22,000 (6.9%) were called active. The shares of active, inactive and inconclusive entries below differ from those in the screen. Calls follow the shape of the dose curve; as a rule, active = well fitted inhibition curve with a large enough effect; inconclusive = small, poorly fitted or top-dose-only effect, or another doubt; inactive = no such curve, though single readings can be large or run the other way. A potency beside an inconclusive call is a rough fit, not a confirmed value.

test: Primary qHTS for delayed death inhibitors of the malarial parasite plastid, 96 hour incubation; details: P. falciparum luciferase reporter growth; series mostly up to 28.7 µM
In short: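 Two parasite generations (96 h, 37 C, 5% CO2) of compound exposure in infected erythrocytes (0.05% parasitemia, 2% hematocrit). Luciferase-reporter P. falciparum; decreased luminescence indicates inhibited growth, aimed at apicoplast-acting delayed death.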
Potency is read from the fitted curve at half-maximal effect.

Structure (SMILES)	Potency
O=C(NCc1ccc2c(c1)OCO2)c1ccc2c(c1)N(Cc1c(F)cccc1Cl)C(=O)CS2	inactive
CCCc1nnc(SCC(=O)Nc2cccc(C(F)(F)F)c2)o1	inactive
COc1cc(C2C(C#N)=C(N)Oc3n[nH]c(-c4cccnc4)c32)cc(Br)c1O (stereo not drawn)	inactive
Cc1ccc(NC(=O)CSc2nnc(-c3ccoc3C)n2CCCN(C)C)cc1Cl	inactive
CC1=C(CO)C(=O)OC([C@@H](C)C2CC[C@H]3C4C[C@H]5O[C@]56[C@@H](O)C=CC(=O)[C@]6(C)C4CC[C@]23C)C1 (stereo partly drawn)	inactive
Cn1c(SCc2ccccc2F)nnc1-c1cnccn1	inconclusive: 9.28 µM [inhibitor, single point]
COC(=O)C1=C(C)N(Cc2ccccc2)C(=NCc2cccc(Cl)c2)N[C@H]1c1ccccc1	inconclusive: 18.5 µM [inhibitor, single point]
Cc1c(NC(=O)Oc2ccccc2)sc(=S)n1C	inactive
CC(C)C(=O)Nc1nnc(CCc2nnc(NC(=O)C(C)C)s2)s1	inconclusive: 18.5 µM [inhibitor, single point]
O=C(CN1C(=O)c2ccccc2S1(=O)=O)N1CCN(c2ccc(F)cc2)CC1	inconclusive: 9.28 µM [inhibitor, single point]
CC1(C)CC(=O)C2=C(C1)NC(=O)CC2C(=O)NCc1ccc(F)cc1 (stereo not drawn)	inconclusive: 0.165 µM [inhibitor, full curve]
O=c1c2[nH]cnc2n(-c2ccccc2)c(=O)n1Cc1ccccc1	inconclusive: 18.5 µM [inhibitor, single point]
COc1ccc(CCNC(=O)CCC(=O)N2CCN(S(=O)(=O)c3ccc(Cl)cc3)CC2)cc1OC	inconclusive: 4.65 µM [inhibitor, partial curve, poor fit]
Cc1nc(CNC(=O)c2cc(COc3ccc(F)cc3Cl)on2)cs1	inconclusive: 18.5 µM [inhibitor, single point]
COc1cc(OC)c(C(=O)O/N=C(\N)c2ccccc2)cc1OC	inactive
COc1ccc(NC(=O)COc2cc(C)cc(C)c2)cc1S(=O)(=O)N1CCCCC1	inconclusive: 9.28 µM [inhibitor, partial curve]
CC(=O)Nc1ccc(Nc2nc3ccccc3nc2NS(=O)(=O)c2ccccc2)cc1	inconclusive: 8.28 µM [inhibitor, partial curve]
Cn1c2ccccc2c2ncn(Cc3ccc(F)cc3)c(=O)c21	inconclusive: 0.0059 µM [inhibitor, full curve, poor fit]
COc1ccc(C)cc1NC(=O)CN1c2cccc3cccc(c23)S1(=O)=O	inconclusive: 18.5 µM [inhibitor, single point]
CC(=O)c1ccc(N2CCN(C(=O)c3ccc(Cl)c(S(=O)(=O)NC4CC4)c3)CC2)c(F)c1	inactive
Cc1ccc2[nH]c3c(c2c1)CCCC3NC(=O)CCl (stereo not drawn)	active: 13.1 µM
Cc1ccc(O)c(CNc2nc3ccccc3[nH]2)c1	inconclusive: 0.828 µM [inhibitor, full curve]
COc1cc2c(cc1OC)-c1nnc(-c3cccs3)n1C1(CCCC1)C2	inconclusive: 4.15 µM [inhibitor, partial curve]

Structure (SMILES)	Potency
O=C(c1ccc(Oc2ccccc2)cc1)C1CCCN(C(=O)c2cnccn2)C1 (stereo not drawn)	inactive
CCN(CC1CCCN(CCc2cccc(OC)c2)C1)C(=O)c1ccc(COC)o1 (stereo not drawn)	inactive
CCCCCCCC(=O)OCC(O)CO (stereo not drawn)	inactive
CCOC(=O)c1c(NC(=O)CSc2nnc3c(n2)[nH]c2ccc(F)cc23)sc(C(C)=O)c1C	inconclusive: 11.7 µM [inhibitor, single point]
COc1ccc(OC)c(C(=O)CC2OC(=O)c3ccccc32)c1 (stereo not drawn)	inconclusive: 18.5 µM [inhibitor, single point]
COc1cccc(NC(=O)COc2coc(CN3CCN(c4ccccc4)CC3)cc2=O)c1	inconclusive: 4.15 µM [inhibitor, single point]
COc1ccc(/C=C/C(=O)OCC(=O)N2CC(=O)Nc3ccccc32)cc1S(=O)(=O)N1CCOCC1	inconclusive: 14.7 µM [inhibitor, single point]
Cn1c(CNC(=O)CCNC(=O)c2ccc(Br)cc2)cc(=O)n(C)c1=O	inconclusive: 11.7 µM [inhibitor, single point]
Cc1cc(C)c2c(c1)C1(OCCO1)C(=O)N2	inconclusive: 0.738 µM [inhibitor, full curve, poor fit]
CCOCCCNC(=O)Cn1cnc2c(cnn2-c2ccc(F)cc2)c1=O	inconclusive: 18.5 µM [inhibitor, single point]
c1ccc(-c2nc[nH]c2-c2ccccc2)cc1	inconclusive: 8.49 µM [inhibitor, partial curve] and inconclusive: 18.5 µM [inhibitor, single point]
Cn1cc([N+](=O)[O-])c(C(=O)NCc2ccco2)n1	inconclusive: 18.5 µM [inhibitor, single point]
Cn1c(=O)c(C(=O)CN2CCCCCC2)c(N)n(Cc2ccccc2)c1=O	inconclusive: 14.7 µM [inhibitor, single point]
Cc1cc(C(=O)N2CCN(c3ccc([N+](=O)[O-])cc3)CC2)co1	inconclusive: 18.5 µM [inhibitor, single point]
C=C(C(=O)c1ccccc1)C(C(=C)C(=O)c1ccccc1)c1ccc(OC)cc1	inconclusive: 3.7 µM [inhibitor, partial curve, poor fit]
COC(=O)c1ccc(NC(=S)N(Cc2cccnc2)Cc2ccco2)cc1	inconclusive: 18.5 µM [inhibitor, single point]
CCCCCCCNC(=O)C1(CC2CC(c3ccc(Cl)cc3)=NO2)CCN(C(=O)C2(C)CC2)CC1 (stereo not drawn)	inconclusive: 13.1 µM [inhibitor, partial curve, poor fit]
Cc1nn(C)c(Cl)c1NC(=O)OCc1ccc(Cl)cc1Cl	inactive
CC(/C=C/C=C/c1ccccc1)=N\NC(=O)c1cccnc1	inconclusive: 18.5 µM [inhibitor, single point]
CC(CCc1ccco1)NC(=O)CSc1cc(=O)n(C)c2ccccc12 (stereo not drawn)	active: 4.15 µM
CS(=O)(=O)N1CCc2cc(S(=O)(=O)Nc3ccc4c(c3)OCCO4)ccc21	inactive
CC(C)c1ccc2oc(=O)cc(CN3CCN(Cc4ccccc4)CC3)c2c1	inconclusive: 14.7 µM [inhibitor, single point]

Arranged by length of the SMILES (largest number first): part of the list above.
Structure (SMILES)	Potency
O=C(CN1C(=O)c2ccccc2S1(=O)=O)N1CCN(c2ccc(F)cc2)CC1	inconclusive: 9.28 µM [inhibitor, single point]
CC(/C=C/C=C/c1ccccc1)=N\NC(=O)c1cccnc1	inconclusive: 18.5 µM [inhibitor, single point]
c1ccc(-c2nc[nH]c2-c2ccccc2)cc1	inconclusive: 8.49 µM [inhibitor, partial curve] and inconclusive: 18.5 µM [inhibitor, single point]

Next part.

Structure (SMILES)	Potency
CC(C)(C)c1nn2cnnc2n(/N=C/c2cccc3ccccc23)c1=O	inconclusive: 18.5 µM [inhibitor, single point]
Cc1ccc(S(=O)(=O)Oc2ccc(C3C4=C(CCCC4=O)N(CCC(=O)O)C4=C3C(=O)CCC4)cc2Cl)cc1	active: 3.29 µM
Cc1ccc(OCC(=O)NC2CCS(=O)(=O)C2)c(C)c1 (stereo not drawn)	active: 5.86 µM
COc1ccc(/C=N\N=C2/SC(CC(=O)O)C(=O)N2c2ccc(O)cc2)cc1 (stereo not drawn)	inactive
O=C(NCCOc1ccccc1)C1CCC(=O)N(C2CCCCCC2)C1 (stereo not drawn)	inconclusive: 10.4 µM [inhibitor, partial curve]
Cc1ccc(CN2CCN(Cc3cnc(C)[nH]3)CC2CCO)cc1 (stereo not drawn)	active: 11.7 µM
COc1ccc(NC(=S)NC(NC(=O)C(C)C)C(Cl)(Cl)Cl)c([N+](=O)[O-])c1 (stereo not drawn)	inactive
CCC(=O)N1CCN(c2cc(NCC3CCCO3)c(F)cc2[N+](=O)[O-])CC1 (stereo not drawn)	inconclusive: 18.5 µM [inhibitor, single point]
COc1ccc(N(CC(=O)N2CCc3ccccc3C2)S(=O)(=O)c2c(C)nn(C)c2C)cc1	active: 1.17 µM
COc1cccc(/C=C(/C#N)c2ccc(Cl)cc2)c1OCc1cccc(C(=O)O)c1	inconclusive: 0.828 µM [inhibitor, full curve, poor fit]
COc1ccc(-c2cc(Cl)cc3c(=O)c4ccccc4n(C)c23)cc1F	inactive
COc1ccc(CN(C(=O)c2cccs2)c2nccs2)cc1OC	inconclusive: 13.1 µM [inhibitor, partial curve, poor fit]
Cc1cc(NC(=O)COc2cccc([N+](=O)[O-])c2)no1	inactive
OCCC1CN(Cc2ccc(Oc3ncccn3)cc2)CCN1C1CCCC1 (stereo not drawn)	inconclusive: 14.7 µM [inhibitor, single point]
Cc1nc2ccc(NC(=O)c3cccnc3)cc2s1	inactive
C=C1C[C@@]23CCC4[C@@](C)(CCC[C@@]4(C)C(=O)OC)C2CC[C@]1(OC(C)=O)C3 (stereo partly drawn)	inconclusive: 14.7 µM [inhibitor, single point]
COc1ccc(NC(=O)CSCC(=O)N2CCN(c3cccc(C(F)(F)F)c3)CC2)cc1	inconclusive: 13.1 µM [inhibitor, partial curve, poor fit]
O=C(c1ccc(F)cc1)C(CN1CCOCC1)c1ccccc1 (stereo not drawn)	inconclusive: 7.38 µM [inhibitor, partial curve, poor fit]
COc1cc(C(=O)NCCOc2cccc(C)c2)c(Br)c(OC)c1OC	inactive
CCOc1ccc(CN(CCC#N)C(=S)NC(=O)c2ccccc2)cc1	inconclusive: 18.5 µM [inhibitor, single point]
COCCNC(=O)COC(=O)c1cc(-c2ccc(OC)cc2)nc2ccccc12	inactive
CNC(=S)N(CCc1c(C)[nH]c2ccc(Cl)cc12)Cc1cc(OC)c(OC)c(OC)c1	inconclusive: 18.5 µM [inhibitor, single point]
